Paper doi:10.1101/2020.10.11.334888 (bioRxiv, 2020)
Results are given in words; binding and its absence hold for the method and conditions named. In cells and extracts the contact can be indirect. Some results given as binding are weak or reduced against the parent protein; the word gives no strength.

The chains behind the UniProt entries cited, without tags or fusion partners. Where a name states a change or a piece, a line headed by the entry shows the natural chain unless it says otherwise.
UniProt P15928, whole entry, looked up, stated change not applied: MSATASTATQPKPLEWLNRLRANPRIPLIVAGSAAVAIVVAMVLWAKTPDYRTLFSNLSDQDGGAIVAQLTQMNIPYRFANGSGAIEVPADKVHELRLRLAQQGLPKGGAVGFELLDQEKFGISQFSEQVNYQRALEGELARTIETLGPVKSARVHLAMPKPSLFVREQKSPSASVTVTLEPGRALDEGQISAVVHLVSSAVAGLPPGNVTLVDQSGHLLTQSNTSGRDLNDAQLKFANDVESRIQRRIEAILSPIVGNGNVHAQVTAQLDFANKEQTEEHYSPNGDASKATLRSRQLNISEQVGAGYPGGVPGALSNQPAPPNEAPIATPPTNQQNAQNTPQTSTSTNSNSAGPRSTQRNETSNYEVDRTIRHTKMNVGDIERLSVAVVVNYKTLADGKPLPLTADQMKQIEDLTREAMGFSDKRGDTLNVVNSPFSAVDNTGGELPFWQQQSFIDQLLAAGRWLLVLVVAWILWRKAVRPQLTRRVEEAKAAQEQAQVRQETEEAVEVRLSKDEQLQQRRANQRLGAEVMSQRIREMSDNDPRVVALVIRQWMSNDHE

Target: FliF(I252C/H263C) expressed from pMMiF011 in Salmonella TH12415 (ΔfliF) (Salmonella enterica serovar Typhimurium) (UniProt P15928)
Test: cross-linking

With “FliF(I252C/H263C) expressed from pMMiF011 in Salmonella TH12415 (ΔfliF) (from UniProt P15928 1-560)” the binding was “binds”.
